The supplement of paper PMC10849652
Some of the results follow.

Chains of the proteins cited; added tags and fusions are not shown. Lines headed by an entry give the natural chain unless they say otherwise; changes in a name come on top.
UniProt Q16850: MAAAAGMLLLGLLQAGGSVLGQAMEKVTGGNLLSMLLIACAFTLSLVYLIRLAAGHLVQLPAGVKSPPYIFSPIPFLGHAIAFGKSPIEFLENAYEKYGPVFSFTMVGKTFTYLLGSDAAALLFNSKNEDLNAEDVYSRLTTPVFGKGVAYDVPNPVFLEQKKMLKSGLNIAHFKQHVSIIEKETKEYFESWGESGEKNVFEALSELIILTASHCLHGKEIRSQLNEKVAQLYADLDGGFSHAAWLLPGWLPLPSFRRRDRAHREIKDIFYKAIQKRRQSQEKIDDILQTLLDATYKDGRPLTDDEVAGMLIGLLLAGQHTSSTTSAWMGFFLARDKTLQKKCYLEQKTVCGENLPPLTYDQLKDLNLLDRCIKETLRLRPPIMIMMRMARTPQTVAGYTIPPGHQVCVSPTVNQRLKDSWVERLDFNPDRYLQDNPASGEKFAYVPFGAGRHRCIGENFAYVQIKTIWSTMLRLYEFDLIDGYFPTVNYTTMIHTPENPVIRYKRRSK
UniProt Q7Z7A3: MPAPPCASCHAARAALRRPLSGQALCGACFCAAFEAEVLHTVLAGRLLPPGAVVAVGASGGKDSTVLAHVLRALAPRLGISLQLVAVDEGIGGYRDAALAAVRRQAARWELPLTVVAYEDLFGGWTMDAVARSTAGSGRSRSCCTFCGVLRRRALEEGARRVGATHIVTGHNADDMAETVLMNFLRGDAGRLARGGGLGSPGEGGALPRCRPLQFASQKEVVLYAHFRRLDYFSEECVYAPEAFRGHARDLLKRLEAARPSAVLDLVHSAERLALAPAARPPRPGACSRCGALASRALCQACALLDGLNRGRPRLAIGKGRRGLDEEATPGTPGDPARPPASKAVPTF
UniProt Q12996: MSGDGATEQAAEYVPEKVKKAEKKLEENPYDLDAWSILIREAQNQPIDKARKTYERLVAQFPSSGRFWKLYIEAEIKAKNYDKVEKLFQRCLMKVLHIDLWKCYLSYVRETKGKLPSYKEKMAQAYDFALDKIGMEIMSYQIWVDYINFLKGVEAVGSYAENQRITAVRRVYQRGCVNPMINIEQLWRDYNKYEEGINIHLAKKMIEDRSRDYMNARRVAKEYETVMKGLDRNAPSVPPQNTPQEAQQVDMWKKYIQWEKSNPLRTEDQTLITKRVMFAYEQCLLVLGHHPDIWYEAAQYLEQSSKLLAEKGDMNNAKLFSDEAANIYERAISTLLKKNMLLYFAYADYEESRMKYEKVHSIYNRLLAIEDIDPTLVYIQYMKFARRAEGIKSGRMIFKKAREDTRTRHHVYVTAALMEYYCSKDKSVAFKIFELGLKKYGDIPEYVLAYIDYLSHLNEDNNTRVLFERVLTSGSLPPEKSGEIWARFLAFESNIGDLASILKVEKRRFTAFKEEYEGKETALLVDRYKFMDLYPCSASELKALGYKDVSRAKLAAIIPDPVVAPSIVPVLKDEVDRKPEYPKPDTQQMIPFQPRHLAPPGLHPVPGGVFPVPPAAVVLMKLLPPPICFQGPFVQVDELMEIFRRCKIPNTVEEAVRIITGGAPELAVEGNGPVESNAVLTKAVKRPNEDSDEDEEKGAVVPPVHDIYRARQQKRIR
UniProt E9PJD7, whole entry, looked up: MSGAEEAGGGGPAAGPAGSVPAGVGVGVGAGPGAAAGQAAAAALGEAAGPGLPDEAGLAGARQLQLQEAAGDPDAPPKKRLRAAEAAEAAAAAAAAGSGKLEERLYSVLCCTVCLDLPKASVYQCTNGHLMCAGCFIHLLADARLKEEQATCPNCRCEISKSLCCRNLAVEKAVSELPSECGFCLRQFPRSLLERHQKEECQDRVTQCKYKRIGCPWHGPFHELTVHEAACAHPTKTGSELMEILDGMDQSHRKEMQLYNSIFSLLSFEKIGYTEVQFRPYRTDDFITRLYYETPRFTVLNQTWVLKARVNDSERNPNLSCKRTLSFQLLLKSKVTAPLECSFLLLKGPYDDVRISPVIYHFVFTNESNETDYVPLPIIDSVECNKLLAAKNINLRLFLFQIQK
UniProt Q9NPI6: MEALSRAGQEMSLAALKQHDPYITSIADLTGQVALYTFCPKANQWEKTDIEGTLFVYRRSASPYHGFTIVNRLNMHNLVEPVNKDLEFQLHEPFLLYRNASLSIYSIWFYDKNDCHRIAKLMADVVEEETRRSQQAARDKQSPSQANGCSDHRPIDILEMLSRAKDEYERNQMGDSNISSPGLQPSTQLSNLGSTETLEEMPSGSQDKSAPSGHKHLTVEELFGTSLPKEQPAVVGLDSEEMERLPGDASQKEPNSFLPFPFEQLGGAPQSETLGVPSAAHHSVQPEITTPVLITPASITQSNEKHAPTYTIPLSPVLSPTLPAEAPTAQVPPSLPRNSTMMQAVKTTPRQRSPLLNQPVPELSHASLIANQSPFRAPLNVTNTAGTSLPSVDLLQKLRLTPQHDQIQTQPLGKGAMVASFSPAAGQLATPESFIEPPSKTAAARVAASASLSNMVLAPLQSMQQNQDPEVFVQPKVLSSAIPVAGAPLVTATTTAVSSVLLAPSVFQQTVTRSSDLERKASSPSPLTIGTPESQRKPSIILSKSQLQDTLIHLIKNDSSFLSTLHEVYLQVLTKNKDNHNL
UniProt Q9NV06: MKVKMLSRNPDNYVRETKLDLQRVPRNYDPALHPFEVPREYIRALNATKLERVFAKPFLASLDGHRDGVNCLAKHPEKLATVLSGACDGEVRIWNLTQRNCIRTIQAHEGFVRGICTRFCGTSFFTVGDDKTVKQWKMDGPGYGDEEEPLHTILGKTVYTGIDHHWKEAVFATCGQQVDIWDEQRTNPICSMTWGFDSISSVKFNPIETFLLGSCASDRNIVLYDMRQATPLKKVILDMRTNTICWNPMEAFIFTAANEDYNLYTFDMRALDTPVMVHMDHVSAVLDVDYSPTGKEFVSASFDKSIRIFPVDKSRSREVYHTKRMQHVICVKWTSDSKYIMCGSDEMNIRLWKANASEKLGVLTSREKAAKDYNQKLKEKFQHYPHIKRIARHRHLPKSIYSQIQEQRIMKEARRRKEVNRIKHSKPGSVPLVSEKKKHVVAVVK
UniProt Q7L576: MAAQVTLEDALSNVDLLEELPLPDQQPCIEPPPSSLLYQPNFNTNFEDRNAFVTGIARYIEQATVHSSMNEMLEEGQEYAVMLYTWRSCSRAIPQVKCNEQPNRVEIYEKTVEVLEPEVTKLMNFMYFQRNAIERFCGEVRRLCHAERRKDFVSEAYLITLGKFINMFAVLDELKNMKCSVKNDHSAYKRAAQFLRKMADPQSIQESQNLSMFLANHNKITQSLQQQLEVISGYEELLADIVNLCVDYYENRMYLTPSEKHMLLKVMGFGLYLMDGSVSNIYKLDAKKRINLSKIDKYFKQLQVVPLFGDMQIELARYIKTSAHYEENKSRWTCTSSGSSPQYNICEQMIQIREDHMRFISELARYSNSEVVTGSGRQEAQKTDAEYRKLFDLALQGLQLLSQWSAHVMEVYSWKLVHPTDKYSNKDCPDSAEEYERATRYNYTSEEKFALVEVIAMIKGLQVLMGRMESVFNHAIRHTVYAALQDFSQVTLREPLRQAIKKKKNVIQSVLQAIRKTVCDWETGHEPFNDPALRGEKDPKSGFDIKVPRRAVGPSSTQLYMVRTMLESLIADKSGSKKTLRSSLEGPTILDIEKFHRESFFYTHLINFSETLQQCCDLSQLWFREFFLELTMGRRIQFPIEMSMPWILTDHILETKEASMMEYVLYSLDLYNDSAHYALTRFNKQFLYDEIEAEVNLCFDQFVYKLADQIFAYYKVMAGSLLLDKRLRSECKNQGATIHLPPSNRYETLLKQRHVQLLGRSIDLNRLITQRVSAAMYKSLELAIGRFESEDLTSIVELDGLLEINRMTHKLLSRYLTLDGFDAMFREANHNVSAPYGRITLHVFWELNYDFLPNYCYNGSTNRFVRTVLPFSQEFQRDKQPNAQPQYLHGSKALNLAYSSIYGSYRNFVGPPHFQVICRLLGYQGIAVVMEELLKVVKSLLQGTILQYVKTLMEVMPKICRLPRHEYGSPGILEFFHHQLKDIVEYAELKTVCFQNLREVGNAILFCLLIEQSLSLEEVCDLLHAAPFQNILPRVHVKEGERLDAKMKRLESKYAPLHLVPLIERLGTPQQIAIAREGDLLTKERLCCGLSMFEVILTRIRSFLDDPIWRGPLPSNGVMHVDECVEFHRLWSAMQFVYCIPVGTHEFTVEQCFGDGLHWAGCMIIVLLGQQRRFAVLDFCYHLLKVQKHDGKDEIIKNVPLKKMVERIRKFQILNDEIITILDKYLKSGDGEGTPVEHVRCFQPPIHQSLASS
UniProt Q5QP82: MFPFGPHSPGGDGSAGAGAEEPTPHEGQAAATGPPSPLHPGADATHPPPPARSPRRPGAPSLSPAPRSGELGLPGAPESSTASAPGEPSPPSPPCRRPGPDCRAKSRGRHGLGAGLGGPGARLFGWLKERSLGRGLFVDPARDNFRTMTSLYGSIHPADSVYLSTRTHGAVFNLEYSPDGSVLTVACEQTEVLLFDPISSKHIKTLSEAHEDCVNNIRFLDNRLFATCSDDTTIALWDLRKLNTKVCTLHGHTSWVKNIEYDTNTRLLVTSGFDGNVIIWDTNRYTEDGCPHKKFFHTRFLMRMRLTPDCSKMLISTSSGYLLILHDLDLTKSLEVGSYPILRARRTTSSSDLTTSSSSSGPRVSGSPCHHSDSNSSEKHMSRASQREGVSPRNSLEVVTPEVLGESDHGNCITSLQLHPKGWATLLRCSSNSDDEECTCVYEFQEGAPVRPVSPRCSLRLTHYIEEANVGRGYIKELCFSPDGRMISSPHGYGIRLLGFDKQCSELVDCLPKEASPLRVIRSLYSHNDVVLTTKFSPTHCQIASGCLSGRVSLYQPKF
UniProt O60911: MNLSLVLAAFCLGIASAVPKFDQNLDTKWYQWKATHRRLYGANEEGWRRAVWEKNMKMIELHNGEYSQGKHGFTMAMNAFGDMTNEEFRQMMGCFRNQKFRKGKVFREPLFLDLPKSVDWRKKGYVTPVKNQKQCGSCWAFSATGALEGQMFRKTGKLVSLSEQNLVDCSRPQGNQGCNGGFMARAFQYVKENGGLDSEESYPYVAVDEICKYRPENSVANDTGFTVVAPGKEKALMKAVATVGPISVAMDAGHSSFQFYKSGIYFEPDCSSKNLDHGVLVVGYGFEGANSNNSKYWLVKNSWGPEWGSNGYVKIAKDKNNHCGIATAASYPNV
UniProt Q8WV16: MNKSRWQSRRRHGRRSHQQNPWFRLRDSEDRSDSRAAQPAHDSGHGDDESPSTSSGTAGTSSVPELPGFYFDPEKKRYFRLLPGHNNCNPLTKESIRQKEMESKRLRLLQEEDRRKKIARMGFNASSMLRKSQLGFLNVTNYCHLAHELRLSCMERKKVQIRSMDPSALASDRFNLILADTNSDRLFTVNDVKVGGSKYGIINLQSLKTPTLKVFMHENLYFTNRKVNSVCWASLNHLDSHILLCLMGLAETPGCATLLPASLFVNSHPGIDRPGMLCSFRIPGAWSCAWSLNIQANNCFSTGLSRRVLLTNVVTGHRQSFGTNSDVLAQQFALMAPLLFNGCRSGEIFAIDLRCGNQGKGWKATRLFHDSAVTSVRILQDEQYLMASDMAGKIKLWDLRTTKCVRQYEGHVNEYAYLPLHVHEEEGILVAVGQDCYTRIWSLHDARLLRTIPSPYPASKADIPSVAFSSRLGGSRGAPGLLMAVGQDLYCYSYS
UniProt P25774, whole entry, looked up: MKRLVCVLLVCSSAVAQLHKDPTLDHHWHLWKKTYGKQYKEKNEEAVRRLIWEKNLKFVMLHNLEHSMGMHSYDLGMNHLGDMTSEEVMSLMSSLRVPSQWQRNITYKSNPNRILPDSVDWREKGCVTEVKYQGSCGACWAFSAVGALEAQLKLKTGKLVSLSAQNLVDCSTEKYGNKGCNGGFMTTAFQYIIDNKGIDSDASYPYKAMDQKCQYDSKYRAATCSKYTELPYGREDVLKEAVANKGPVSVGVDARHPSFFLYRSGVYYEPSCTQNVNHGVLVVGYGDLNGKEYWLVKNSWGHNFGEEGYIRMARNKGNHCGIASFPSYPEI
UniProt Q6UX04: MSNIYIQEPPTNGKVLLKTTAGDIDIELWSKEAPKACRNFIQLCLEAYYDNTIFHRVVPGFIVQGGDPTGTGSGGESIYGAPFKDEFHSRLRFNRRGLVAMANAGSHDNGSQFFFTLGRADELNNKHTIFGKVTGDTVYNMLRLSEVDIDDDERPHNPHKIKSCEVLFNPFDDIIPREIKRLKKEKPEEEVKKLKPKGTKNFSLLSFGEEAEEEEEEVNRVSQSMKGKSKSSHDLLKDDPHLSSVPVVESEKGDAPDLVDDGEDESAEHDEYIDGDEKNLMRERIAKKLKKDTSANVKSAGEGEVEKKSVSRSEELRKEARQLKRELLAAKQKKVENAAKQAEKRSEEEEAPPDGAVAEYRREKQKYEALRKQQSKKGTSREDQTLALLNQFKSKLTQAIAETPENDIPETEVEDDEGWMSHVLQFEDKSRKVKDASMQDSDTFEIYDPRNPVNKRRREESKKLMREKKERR

Tests used:
Assay in all cases: log2 fold change, soluble protein after heating vs DMSO (PISA); higher = thermal stabilisation; K562 cells, 10 uM, 30 min; active = over 0.2 and 3.5 SD of the protein, either way, in both replicates (recomputed)
saracatinib = compound: CN1CCN(CCOc2cc(OC3CCOCC3)c3c(Nc4c(Cl)ccc5c4OCO5)ncnc3c2)CC1 [saracatinib]
Outline: (§1)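 Values are thermal stability changes relative to control samples and are taken from duplicates. They are stated as log2 fold changes. Before quantification by TMTpro 16plex LC-MS/MS with equalised channel sums, K562 cells at 2×10^6 cells/mL were treated with 10 μM compound for 30 min, heated in aliquots for 3 min across 48°C-58°C, pooled, extracted in PBS with 0.5% NP-40 at 4°C, and centrifuged at 21,000xg for 90 min to give the soluble supernatant.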

sotrastaurin = compound: CN1CCN(c2nc(C3=C(c4c[nH]c5ccccc45)C(=O)NC3=O)c3ccccc3n2)CC1 [sotrastaurin]
Outline: as §1

Tubastatin A = compound: CN1CCc2c(c3ccccc3n2Cc2ccc(C(=O)NO)cc2)C1 [Tubastatin A]
Outline: as §1

[1] = compound: CNC(=O)C1=CC=CC=C1NC2=NC(=NC=C2Cl)NC3=C(C=C(C=C3)N4CCOCC4)OC
Outline: as §1

defactinib = compound: CNC(=O)c1ccc(Nc2ncc(C(F)(F)F)c(NCc3nccnc3N(C)S(C)(=O)=O)n2)cc1 [defactinib]
Outline: as §1

rucaparib = compound: CNCc1ccc(-c2[nH]c3cc(F)cc4c3c2CCNC4=O)cc1 [rucaparib]
Outline: as §1

[2] = compound: CNc1nc(-c2ccc3c(N)n[nH]c3c2)cc(N2C[C@@H](C(=O)NC3CCCCC3)CC[C@H]2C)n1
Outline: as §1

encorafenib = compound: COC(=O)N[C@@H](C)CNc1nccc(-c2cn(C(C)C)nc2-c2cc(Cl)cc(NS(C)(=O)=O)c2F)n1 [encorafenib]
Outline: as §1

[3] = compound: COC(=O)[C@H](CCSC)NC(=O)C1=C(C=C(C=C1)NC[C@H](CS)N)C2=CC=CC=C2
Outline: as §1

[4] = compound: COC1=CC=C(C=C1)CN2C=CC3=C2C=C(C=C3)C(=O)NO
Outline: as §1

filanesib = compound: CON(C)C(=O)N1N=C(c2cc(F)ccc2F)S[C@@]1(CCCN)c1ccccc1 [filanesib]
Outline: as §1

zotarolimus = compound: CO[C@H]1C[C@@H]2CC[C@@H](C)[C@@](O)(O2)C(=O)C(=O)N2CCCC[C@H]2C(=O)O[C@H]([C@H](C)C[C@@H]2CC[C@H](n3cnnn3)[C@H](OC)C2)CC(=O)[C@H](C)/C=C(\C)[C@@H](O)[C@@H](OC)C(=O)[C@H](C)C[C@H](C)/C=C/C=C/C=C/1C [zotarolimus]
Outline: as §1

idasanutlin = compound: COc1cc(C(=O)O)ccc1NC(=O)[C@@H]1N[C@@H](CC(C)(C)C)[C@](C#N)(c2ccc(Cl)cc2F)[C@H]1c1cccc(Cl)c1F [idasanutlin]
Outline: as §1

alisertib = compound: COc1cc(Nc2ncc3c(n2)-c2ccc(Cl)cc2C(c2c(F)cccc2OC)=NC3)ccc1C(=O)O [alisertib]
Outline: as §1

[5] = compound: COc1cc2nc(-c3cc(F)ccc3O)nc(N[C@@H]3CNC[C@H]3C(C)(C)O)c2cc1OC
Outline: as §1

gefitinib = compound: COc1cc2ncnc(Nc3ccc(F)c(Cl)c3)c2cc1OCCCN1CCOCC1 [gefitinib]
Outline: as §1

[6] = compound: COc1cccc2cc(-c3nc([C@H]4CC[C@H](C(=O)O)CC4)n4ncnc(N)c34)[nH]c12
Outline: as §1

lapatinib = compound: CS(=O)(=O)CCNCc1ccc(-c2ccc3ncnc(Nc4ccc(OCc5cccc(F)c5)c(Cl)c4)c3c2)o1 [lapatinib]
Outline: as §1

pictilisib = compound: CS(=O)(=O)N1CCN(Cc2cc3nc(-c4cccc5[nH]ncc45)nc(N4CCOCC4)c3s2)CC1 [pictilisib]
Outline: as §1

alvocidib = compound: CN1CC[C@H](c2c(O)cc(O)c3c(=O)cc(-c4ccccc4Cl)oc23)[C@H](O)C1 [alvocidib]
Outline: as §1

Target | log2 fold change (saracatinib) | log2 fold change (sotrastaurin) | log2 fold change (Tubastatin A) | log2 fold change [1] | log2 fold change (defactinib) | log2 fold change (rucaparib) | log2 fold change [2] | log2 fold change (encorafenib) | log2 fold change [3] | log2 fold change [4] | log2 fold change (filanesib) | log2 fold change (zotarolimus) | log2 fold change (idasanutlin) | log2 fold change (alisertib) | log2 fold change [5] | log2 fold change (gefitinib) | log2 fold change [6] | log2 fold change (lapatinib) | log2 fold change (pictilisib) | log2 fold change (alvocidib)
CYP51A1 (UniProt Q16850) | inactive: -0.072 | inactive: -0.029 | inactive: -0.024 | inactive: 0.065 | inactive: 0 | inactive: 0.162 | inactive: 0.212 | inactive: 0.029 | inactive: -0.135 | inactive: -0.035 | inactive: 0.217 | inactive: -0.11 | inactive: 0.099 | inactive: -0.025 | inactive: -0.005 | inactive: 0.009 | inactive: -0.105 | active: 0.401 | inactive: -0.216 | 
CTU1 (UniProt Q7Z7A3) | inactive: 0.01 | inactive: -0.038 | inactive: -0.029 | inactive: -0.045 | inactive: -0.036 | inactive: -0.003 | inactive: 0.09 | inactive: 0.02 | inactive: -0.031 | inactive: 0.045 | inactive: -0.193 | inactive: 0.022 | inactive: -0.037 | inactive: -0.063 | inactive: -0.061 | inactive: -0.024 | inactive: 0.025 | inactive: -0.085 | inactive: -0.005 | 
CSTF3 (UniProt Q12996) | inactive: 0.001 | inactive: 0.045 | inactive: -0.08 | inactive: 0.043 | inactive: 0.173 | inactive: 0.088 | inactive: -0.051 | inactive: -0.022 | inactive: 0.002 | inactive: -0.008 | inactive: -0.041 | inactive: -0.033 | inactive: -0.087 | inactive: -0.056 | inactive: 0.176 | inactive: -0.005 | inactive: 0.022 | inactive: -0.012 | inactive: 0.066 | 
CYHR1 (UniProt E9PJD7) | inactive: 0.025 | inactive: -0.001 | inactive: 0.002 | inactive: 0.017 | inactive: -0.073 | inactive: 0.026 | inactive: -0.121 | inactive: 0.03 | inactive: 0.003 | inactive: -0.127 | inactive: 0.002 | inactive: -0.077 | inactive: 0.031 | inactive: 0.003 | inactive: -0.002 | inactive: 0.07 | inactive: 0.017 | inactive: -0.042 | inactive: -0.003 | inactive: -0.078
DCP1A (UniProt Q9NPI6) | inactive: 0.007 | inactive: 0.004 | inactive: 0.172 | inactive: -0.058 | inactive: -0.19 | inactive: 0.234 | inactive: -0.032 | inactive: 0.179 | inactive: -0.252 | inactive: -0.04 | inactive: 0.176 | inactive: -0.132 | inactive: 0.075 | inactive: 0.061 | inactive: 0.162 | inactive: -0.023 | inactive: -0.048 | inactive: 0 | inactive: -0.088 | inactive: -0.003
DCAF13 (UniProt Q9NV06) | inactive: -0.027 | inactive: 0.001 | inactive: 0.094 | inactive: 0.074 | inactive: 0.165 | inactive: 0.19 | inactive: 0.045 | inactive: 0.07 | inactive: 0.029 | inactive: -0.083 | inactive: 0.333 | inactive: -0.01 | inactive: 0.17 | inactive: -0.067 | inactive: -0.047 | inactive: -0.063 | inactive: -0.112 | inactive: 0.083 | inactive: -0.103 | 
CYP2S1 isoform 2 (UniProt Q96SQ9) | inactive: -0.001 | inactive: 0.098 |  | inactive: 0.02 |  |  | inactive: 0.301 |  |  | inactive: 0.077 | inactive: 0.068 | inactive: 0.055 | inactive: 0.014 | inactive: 0.185 |  |  | inactive: -0.069 |  | inactive: 0.103 | inactive: -0.005
CUX1 isoform 2 (UniProt Q13948) | inactive: -0.065 | inactive: -0.012 | inactive: 0.006 | inactive: 0.03 | inactive: -0.049 | inactive: 0.061 | inactive: 0.048 | inactive: 0.056 | inactive: -0.062 | inactive: -0.095 | inactive: 0.077 | inactive: -0.007 | inactive: -0.043 | inactive: 0.012 | inactive: -0.062 | inactive: -0.029 | inactive: 0.074 | inactive: 0.009 | inactive: 0.018 | 
DCTPP1 (UniProt Q9H773) | inactive: 0.012 | inactive: 0.031 | inactive: 0.031 | inactive: -0.075 | inactive: -0.008 | inactive: -0.011 | inactive: -0.022 | inactive: -0.072 | inactive: 0.002 | inactive: 0.023 | inactive: -0.02 | inactive: 0.083 | inactive: -0.061 | inactive: -0.067 | inactive: -0.091 | inactive: 0 | inactive: 0.038 | inactive: -0.058 | inactive: -0.05 | 
CYFIP1 (UniProt Q7L576) | inactive: -0.023 | inactive: -0.026 | inactive: 0.006 | inactive: -0.001 | inactive: -0.049 | inactive: 0.025 | inactive: 0 | inactive: -0.005 | inactive: -0.013 | inactive: 0.053 | inactive: -0.027 | inactive: 0.039 | inactive: -0.028 | inactive: 0.061 | inactive: -0.004 | inactive: 0.008 | inactive: 0.013 | inactive: 0.023 | inactive: 0.097 | 
DBNL isoform 3 (UniProt Q9UJU6) | inactive: 0.04 | inactive: -0.014 | inactive: 0.009 | inactive: 0.01 | inactive: -0.106 | inactive: -0.1 | inactive: -0.05 | inactive: 0.061 | inactive: -0.004 | inactive: 0.096 | inactive: 0.006 | inactive: -0.018 | inactive: 0.02 | inactive: 0.025 | inactive: -0.002 | inactive: 0.021 | inactive: -0.016 | inactive: 0.016 | inactive: 0.027 | 
CTSB (UniProt P07858) | inactive: 0.05 | inactive: 0.064 | inactive: 0.002 | inactive: 0.052 | inactive: -0.014 | inactive: -0.073 | inactive: -0.009 | inactive: 0.013 | inactive: -0.008 | inactive: 0.044 | inactive: -0.16 | inactive: 0.044 | inactive: 0.032 | inactive: 0.007 | inactive: -0.006 | inactive: 0.024 | inactive: 0.03 | inactive: -0.016 | inactive: 0.043 | 
CTDP1 (UniProt Q9Y5B0) | inactive: -0.004 | inactive: -0.111 | inactive: -0.016 | inactive: 0.02 |  |  | inactive: 0.082 |  |  | inactive: 0.061 | inactive: -0.01 | inactive: -0.238 |  | inactive: -0.06 | inactive: 0.092 | inactive: -0.018 | inactive: 0.101 | inactive: 0.006 |  | inactive: 0.092
DCAF10 (UniProt Q5QP82) | inactive: 0.09 | inactive: 0.021 | inactive: -0.094 | inactive: -0.018 | inactive: -0.009 | inactive: -0.083 | inactive: 0.007 | inactive: 0.052 | inactive: 0 | inactive: -0.047 | inactive: 0.016 | inactive: -0.01 | inactive: 0.002 | inactive: 0.09 | inactive: 0.076 | inactive: -0.051 | inactive: -0.067 | inactive: -0.081 | inactive: 0.032 | 
CTSV (UniProt O60911) | inactive: -0.049 | inactive: 0.195 | inactive: 0.016 | inactive: 0.048 | inactive: 0.011 | inactive: -0.056 | inactive: 0.062 | inactive: 0 | inactive: 0.02 | inactive: -0.006 | inactive: -0.112 | inactive: -0.011 | inactive: -0.036 | inactive: -0.042 | inactive: -0.002 | inactive: 0.056 | inactive: 0.141 | inactive: -0.064 | inactive: 0.135 | 
DCAF4 (UniProt Q8WV16) | inactive: -0.097 | inactive: 0.027 |  |  |  | inactive: -0.346 | inactive: 0.193 | inactive: 0.103 |  |  | inactive: 0.018 |  |  | inactive: -0.076 |  | inactive: -0.012 | inactive: 0.005 |  | inactive: 0.074 | 
CTR9 (UniProt Q6PD62) | inactive: -0.208 | inactive: -0.048 |  | inactive: -0.162 |  | inactive: 0.242 | inactive: 0.004 | inactive: 0.298 |  | inactive: -0.391 | inactive: 0.027 |  |  |  | inactive: -0.249 |  |  | inactive: -0.182 | inactive: -0.007 | 
CTSS (UniProt P25774) | active: 0.478 | inactive: 0.051 | inactive: -0.084 |  | inactive: 0.074 | inactive: 0.258 | inactive: 0.134 | inactive: -0.074 | inactive: -0.012 | inactive: 0.019 | inactive: 0.051 | inactive: -0.081 |  |  |  |  |  |  | inactive: -0.043 | 
CWC27 (UniProt Q6UX04) | inactive: 0.01 | inactive: -0.093 | inactive: 0.012 | inactive: 0.022 | inactive: -0.139 | inactive: -0.001 | inactive: -0.064 | inactive: 0.068 | inactive: -0.04 | inactive: 0.047 | inactive: -0.017 | inactive: -0.068 | inactive: 0.014 | inactive: -0.043 | inactive: 0.061 | inactive: 0.021 | inactive: -0.046 | inactive: -0.004 | inactive: -0.036 | 

An excerpt of these results, as tab-separated lines:
Target	log2 fold change (saracatinib)	log2 fold change (sotrastaurin)	log2 fold change (Tubastatin A)	log2 fold change [1]	log2 fold change (defactinib)	log2 fold change (rucaparib)	log2 fold change [2]	log2 fold change (encorafenib)	log2 fold change [3]	log2 fold change [4]	log2 fold change (filanesib)	log2 fold change (zotarolimus)	log2 fold change (idasanutlin)	log2 fold change (alisertib)	log2 fold change [5]	log2 fold change (gefitinib)	log2 fold change [6]	log2 fold change (lapatinib)	log2 fold change (pictilisib)	log2 fold change (alvocidib)
CUX1 isoform 2 (UniProt Q13948)	inactive: -0.065	inactive: -0.012	inactive: 0.006	inactive: 0.03	inactive: -0.049	inactive: 0.061	inactive: 0.048	inactive: 0.056	inactive: -0.062	inactive: -0.095	inactive: 0.077	inactive: -0.007	inactive: -0.043	inactive: 0.012	inactive: -0.062	inactive: -0.029	inactive: 0.074	inactive: 0.009	inactive: 0.018	
DCTPP1 (UniProt Q9H773)	inactive: 0.012	inactive: 0.031	inactive: 0.031	inactive: -0.075	inactive: -0.008	inactive: -0.011	inactive: -0.022	inactive: -0.072	inactive: 0.002	inactive: 0.023	inactive: -0.02	inactive: 0.083	inactive: -0.061	inactive: -0.067	inactive: -0.091	inactive: 0	inactive: 0.038	inactive: -0.058	inactive: -0.05	
